The values below come from the supplement of paper PMC12067093, “Discovery and optimisation of a covalent ligand for TRIM25 and its application to targeted protein ubiquitination” (Chemical Science, 2025).

In assay [1] the target is T1, POLL_Q9UGP5_73_QIVQHGGQLCPAQGPGVTHIVVDEGMDYER (UniProt Q9UGP5).
T1 sequence (whole entry): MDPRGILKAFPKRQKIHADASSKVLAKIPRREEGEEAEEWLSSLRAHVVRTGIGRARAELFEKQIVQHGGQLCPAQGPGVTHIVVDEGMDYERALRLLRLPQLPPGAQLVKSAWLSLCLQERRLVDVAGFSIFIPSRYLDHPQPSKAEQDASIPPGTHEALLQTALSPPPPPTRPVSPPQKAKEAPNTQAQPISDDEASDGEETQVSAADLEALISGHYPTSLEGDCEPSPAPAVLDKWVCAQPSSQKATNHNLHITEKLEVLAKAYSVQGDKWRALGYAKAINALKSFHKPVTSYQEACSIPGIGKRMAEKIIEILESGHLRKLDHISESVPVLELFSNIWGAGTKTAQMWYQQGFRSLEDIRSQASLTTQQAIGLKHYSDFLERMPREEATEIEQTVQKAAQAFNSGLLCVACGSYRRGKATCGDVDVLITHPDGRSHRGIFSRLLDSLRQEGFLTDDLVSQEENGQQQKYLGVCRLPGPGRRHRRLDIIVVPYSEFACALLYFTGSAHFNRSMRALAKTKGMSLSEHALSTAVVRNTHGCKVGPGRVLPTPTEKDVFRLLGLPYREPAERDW
As to the kind of experiment: probe-labelled cysteine peptide fold change vs DMSO (competition) (log2 fold change); higher = less target engagement (more negative = stronger competition). The note with it: THP-1, incubation time: 4 h.

The target in assay [2] is T2, PPIL2_Q13356_103_YHCPVLFTVFTNNTHIVAVR (UniProt Q13356).
T2 sequence (whole entry): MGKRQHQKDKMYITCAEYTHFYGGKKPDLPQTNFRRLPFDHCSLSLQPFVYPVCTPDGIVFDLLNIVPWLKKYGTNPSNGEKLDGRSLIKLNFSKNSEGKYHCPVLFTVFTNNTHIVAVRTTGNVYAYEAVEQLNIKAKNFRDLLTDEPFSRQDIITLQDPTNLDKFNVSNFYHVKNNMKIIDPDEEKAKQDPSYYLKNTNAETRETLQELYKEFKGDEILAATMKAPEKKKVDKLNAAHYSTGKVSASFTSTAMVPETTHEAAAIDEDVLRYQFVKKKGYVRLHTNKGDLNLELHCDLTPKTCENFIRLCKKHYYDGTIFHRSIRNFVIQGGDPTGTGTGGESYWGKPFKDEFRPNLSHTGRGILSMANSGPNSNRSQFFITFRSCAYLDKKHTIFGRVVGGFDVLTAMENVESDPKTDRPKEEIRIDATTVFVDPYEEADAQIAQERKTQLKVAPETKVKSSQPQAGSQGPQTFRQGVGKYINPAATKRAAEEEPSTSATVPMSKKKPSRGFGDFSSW
The description is as above. The note with it: THP-1, incubation time: 4 h.

Structures are written as SMILES. This is one part of the list.
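Note: competitive profiling in live THP-1 cells: cysteine peptides tagged with an iodoacetamide desthiobiotin (IA-DTB) probe, intensity after compound treatment relative to DMSO-treated cells.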

With `Cc1cc(C(=O)N2CCCN(C(=O)CCl)CC2)ccc1-c1ccccc1` [compound 10], the “probe-labelled cysteine peptide fold change” value in assay [1] (10 µM) is 0.296; in assay [1] (50 µM), 0.382; in assay [2] (10 µM), -0.148; in assay [2] (50 µM), 0.209.
